# Measured values: publication doi:10.1101/032243
# Results are given in words; binding and its absence hold for the method and conditions named. In cells and extracts the contact can be indirect. Binding can be weak; no strength is given. Where a sequence is shown, tags or fusion partners need not be part of it.
# B1: full-length HA-tagged RASSF7 (protein, UniProt Q9DD19 1-359)
# chain: MVLELVAMELKVWVDGIQRVVCGVSEQTTCQEVVIALAQAIGQTGRFVLVQRLREKERQLLPQECPVGAQATCGQFANDVQFVLRRTGPSLSGRPSSDNCPPPERCPVRASLPPKPSAIPGREPRKALTFNLRCPKLVPSPSIPEPAALVGPIPDGFADLQDLELRIQRNTEELGHEAFWEQELQREQAREREGQARLQALSAATAEHAARLEALDAQACALEAELRLAAEAPGPPSATASAAERLRQDLATQERHSLEMQGTLALVSQALEAAEHALQAQAQELEELNRELRQCNLQQFIQQTGAALPPPPPQLDRTIPSTQDLLSPNRGELQGVPQSHILVSSLSPEVPPMRQSSWR
# Target: Flag-tagged DISC1 MD domain (mouse)
# Assay: co-IP
binder,measurement,value
B1,binding,binds
